# In the supplement of paper PMC8728848:
# This is one part of the list.
# B1: PX14343E-bfa-545-24-545 (Bacteroides fragilis) (protein)
# chain: LDRYPQEELSDGSFWKTPDDANKVVSDLYGYLSTWDQDNDINSDNATMGIKWAAGNVSKGIYDPADQGWSGDYANVRQCNLILSKIDEIPDYPEADKTKALGQVYFFRAYIYFNLIRSFGDVPYIDKPLDLKDMEGITRMPRAEVYEKIMADFDKAIAALPTEWGASDYGRVTKGAAMAMKARAALYYGNWDTAATEAKNVMDLGLYELYDKDNTGKYAELFWEKADGCDEFILVTQFNYPDKTHYLMGWECFPTKGWGGMNPTQSLVDAFEDSEGAPISKSKIYDPTDPFKNRDPRLEVDILHDGEEMYGVTIKVAPLASSGSTGINQHNDATETGYYGQKWLDPSLDPLSDGWNMGKDWVHIRYAEVLLTYAEAKNELQGLDPEAFDAVNQVRRRVGMPELQNTDPSKPTYCATQDDLRQRIRNEWRVEFCLEGGKRMWDIRRWGIAKDVLNAPFEGLKYKIVDNPNDPDKKVDGGKMCILYQGDPIILSGSRYSDNNYLFPVPQSEIDLNPALTQNPGY
# Key:
# Assay in all cases: glycan array binding signal (z-score within array); higher = stronger binding
# Conditions in all cases: glycan notation: IUPAC condensed, linker removed
# [1] = target: Gal(b1-4)GlcNAc(b1-3)Gal(b1-4)GlcNAc(b1-3)Gal(b1-4)GlcNAc(b1-2)Man(a1-3)[Gal(b1-4)GlcNAc(b1-3)Gal(b1-4)GlcNAc(b1-3)Gal(b1-4)GlcNAc(b1-2)Man(a1-6)]Man(b1-4)GlcNAc(b1-4)GlcNAc
# In short: (§1)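 Glycan array binding is given as a within-array Z-score, which can be read as non-binding when negative. The arrays, 3228 of them, came from the Consortium for Functional Glycomics database and were retained only where the protein sequence was available. Z-scores were averaged across arrays of the same protein sequence at different concentrations or buffers and across linkers.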
# [2] = target: Gal(b1-4)GlcNAc(b1-3)Gal(b1-4)GlcNAc(b1-3)Gal(b1-4)GlcNAc(b1-2)Man(a1-3)[Gal(b1-4)GlcNAc(b1-3)Gal(b1-4)GlcNAc(b1-3)Gal(b1-4)GlcNAc(b1-2)Man(a1-6)]Man(b1-4)GlcNAc(b1-4)[Fuc(a1-6)]GlcNAc
# In short: as §1
# [3] = target: Gal(b1-4)GlcNAc(b1-3)Gal(b1-4)GlcNAc(b1-3)Gal(b1-4)GlcNAc(b1-2)[Gal(b1-4)GlcNAc(b1-3)Gal(b1-4)GlcNAc(b1-3)Gal(b1-4)GlcNAc(b1-6)]Man(a1-6)[Gal(b1-4)GlcNAc(b1-3)Gal(b1-4)GlcNAc(b1-3)Gal(b1-4)GlcNAc(b1-2)Man(a1-3)]Man(b1-4)GlcNAc(b1-4)[Fuc(a1-6)]GlcNAc
# In short: as §1
# [4] = target: Gal(b1-4)GlcNAc(b1-3)Gal(b1-4)GlcNAc(b1-3)Gal(b1-4)GlcNAc(b1-3)Gal(b1-4)GlcNAc(b1-2)Man(a1-3)[Gal(b1-4)GlcNAc(b1-3)Gal(b1-4)GlcNAc(b1-3)Gal(b1-4)GlcNAc(b1-3)Gal(b1-4)GlcNAc(b1-2)Man(a1-6)]Man(b1-4)GlcNAc(b1-4)GlcNAc
# In short: as §1
# [5] = target: Gal(b1-4)GlcNAc(b1-3)Gal(b1-4)GlcNAc(b1-3)Gal(b1-4)GlcNAc(b1-3)Gal(b1-4)GlcNAc(b1-2)Man(a1-3)[Gal(b1-4)GlcNAc(b1-3)Gal(b1-4)GlcNAc(b1-3)Gal(b1-4)GlcNAc(b1-3)Gal(b1-4)GlcNAc(b1-2)Man(a1-6)]Man(b1-4)GlcNAc(b1-4)[Fuc(a1-6)]GlcNAc
# In short: as §1
# [6] = target: Gal(b1-4)GlcNAc(b1-3)Gal(b1-4)GlcNAc(b1-3)Gal(b1-4)GlcNAc(b1-3)Gal(b1-4)GlcNAc(b1-2)[Gal(b1-4)GlcNAc(b1-3)Gal(b1-4)GlcNAc(b1-3)Gal(b1-4)GlcNAc(b1-3)Gal(b1-4)GlcNAc(b1-6)]Man(a1-6)[Gal(b1-4)GlcNAc(b1-3)Gal(b1-4)GlcNAc(b1-3)Gal(b1-4)GlcNAc(b1-3)Gal(b1-4)GlcNAc(b1-2)Man(a1-3)]Man(b1-4)GlcNAc(b1-4)[Fuc(a1-6)]GlcNAc
# In short: as §1
# [7] = target: Gal(b1-4)GlcNAc(b1-3)Gal(b1-4)GlcNAc(b1-3)Gal(b1-4)GlcNAc(b1-3)Gal(b1-4)GlcNAc(b1-3)Gal(b1-4)GlcNAc(b1-2)Man(a1-3)[Gal(b1-4)GlcNAc(b1-3)Gal(b1-4)GlcNAc(b1-3)Gal(b1-4)GlcNAc(b1-3)Gal(b1-4)GlcNAc(b1-3)Gal(b1-4)GlcNAc(b1-2)Man(a1-6)]Man(b1-4)GlcNAc(b1-4)GlcNAc
# In short: as §1
# [8] = target: Gal(b1-4)GlcNAc(b1-3)Gal(b1-4)GlcNAc(b1-3)Gal(b1-4)GlcNAc(b1-3)Gal(b1-4)GlcNAc(b1-3)Gal(b1-4)GlcNAc(b1-2)Man(a1-3)[Gal(b1-4)GlcNAc(b1-3)Gal(b1-4)GlcNAc(b1-3)Gal(b1-4)GlcNAc(b1-3)Gal(b1-4)GlcNAc(b1-3)Gal(b1-4)GlcNAc(b1-2)Man(a1-6)]Man(b1-4)GlcNAc(b1-4)[Fuc(a1-6)]GlcNAc
# In short: as §1
# [9] = target: Gal(b1-4)GlcNAc(b1-3)Gal(b1-4)GlcNAc(b1-3)Gal(b1-4)GlcNAc(b1-3)Gal(b1-4)GlcNAc(b1-3)Gal(b1-4)GlcNAc(b1-2)[Gal(b1-4)GlcNAc(b1-3)Gal(b1-4)GlcNAc(b1-3)Gal(b1-4)GlcNAc(b1-3)Gal(b1-4)GlcNAc(b1-3)Gal(b1-4)GlcNAc(b1-6)]Man(a1-6)[Gal(b1-4)GlcNAc(b1-3)Gal(b1-4)GlcNAc(b1-3)Gal(b1-4)GlcNAc(b1-3)Gal(b1-4)GlcNAc(b1-3)Gal(b1-4)GlcNAc(b1-2)Man(a1-3)]Man(b1-4)GlcNAc(b1-4)[Fuc(a1-6)]GlcNAc
# In short: as §1
# [10] = target: Gal(b1-4)GlcNAc(b1-3)Gal(b1-4)GlcNAc(b1-3)Gal(b1-4)GlcNAc(b1-3)Gal(b1-4)GlcNAc(b1-3)Gal(b1-4)GlcNAc(b1-3)Gal(b1-4)GlcNAc(b1-2)Man(a1-3)[Gal(b1-4)GlcNAc(b1-3)Gal(b1-4)GlcNAc(b1-3)Gal(b1-4)GlcNAc(b1-3)Gal(b1-4)GlcNAc(b1-3)Gal(b1-4)GlcNAc(b1-3)Gal(b1-4)GlcNAc(b1-2)Man(a1-6)]Man(b1-4)GlcNAc(b1-4)GlcNAc
# In short: as §1
# [11] = target: Gal(b1-4)GlcNAc(b1-3)Gal(b1-4)GlcNAc(b1-3)GalNAc
# In short: as §1
# [12] = target: Gal(b1-4)GlcNAc(b1-3)Gal(b1-4)GlcNAc(b1-3)[Gal(b1-4)GlcNAc(b1-3)Gal(b1-4)GlcNAc(b1-6)]GalNAc
# In short: as §1
# [13] = target: Gal(b1-4)GlcNAc(b1-3)Gal(b1-4)GlcNAc(b1-6)[Gal(b1-3)]GalNAc
# In short: as §1
# [14] = target: Gal(b1-4)GlcNAc(b1-3)Gal(b1-4)[Fuc(a1-3)]GlcNAc(b1-3)Gal(b1-4)[Fuc(a1-3)]GlcNAc
# In short: as §1
# [15] = target: Gal(b1-4)GlcNAc(b1-3)GalNAc
# In short: as §1
# [16] = target: Gal(b1-4)GlcNAc(b1-3)[Fuc(a1-3)GlcNAc(b1-6)]Gal(b1-4)Glc
# In short: as §1
# [17] = target: Gal(b1-4)GlcNAc(b1-3)[Gal(b1-4)GlcNAc(b1-6)]Gal(b1-4)GlcNAc
# In short: as §1
# [18] = target: Gal(b1-4)GlcNAc(b1-3)[GlcNAc(b1-6)]Gal(b1-4)GlcNAc
# In short: as §1
# [19] = target: Gal(b1-4)GlcNAc(b1-6)Gal(b1-4)GlcNAc
# In short: as §1
binder,measurement,setting,value
B1,glycan array binding signal (z-score),[1],3.79
same,glycan array binding signal (z-score),[2],0.202
same,glycan array binding signal (z-score),[3],4.56
same,glycan array binding signal (z-score),[4],0.385
same,glycan array binding signal (z-score),[5],2.87
same,glycan array binding signal (z-score),[6],0.131
same,glycan array binding signal (z-score),[7],1.45
same,glycan array binding signal (z-score),[8],0.44
same,glycan array binding signal (z-score),[9],1.06
same,glycan array binding signal (z-score),[10],0.756
same,glycan array binding signal (z-score),[11],0.538
same,glycan array binding signal (z-score),[12],2.88
same,glycan array binding signal (z-score),[13],0.478
same,glycan array binding signal (z-score),[14],-0.643
same,glycan array binding signal (z-score),[15],0.083
same,glycan array binding signal (z-score),[16],-0.275
same,glycan array binding signal (z-score),[17],0.572
same,glycan array binding signal (z-score),[18],0.232
same,glycan array binding signal (z-score),[19],0.326

# In another format: entries from further up
binder	measurement	setting	value
B1	glycan array binding signal (z-score)	[8]	0.44
same	glycan array binding signal (z-score)	[9]	1.06
same	glycan array binding signal (z-score)	[10]	0.756
same	glycan array binding signal (z-score)	[11]	0.538
